{"sequences": {"note": "By UniProt entry, the sequences of proteins in these tests, tags left out.", "UniProt O95166": "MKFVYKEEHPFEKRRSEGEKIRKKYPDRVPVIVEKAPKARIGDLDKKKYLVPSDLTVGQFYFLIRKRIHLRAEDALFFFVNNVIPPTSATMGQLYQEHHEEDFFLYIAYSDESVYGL"}, "source": "paper PMC7935953", "about": "“Insights on autophagosome–lysosome tethering from structural and biochemical characterization of human autophagy factor EPG5” (Communications Biology, 2021)", "binders": {"B1": {"name": "hEPG5^Δ1–1198 (domain or fragment, UniProt Q9HCE0 1199-2579)", "chain": "YHCDRSLLSSLVSWIVAGNITPSFVEGLATPTQVWFAWTVLNMESIFEEDSQLRRVIEGELVINSAFTPDQALKKAQTQLKLPIVPSLQRLLIYRWAHQALVTPSDHPLLPLIWQKFFLLYLHRPGPQYGLPIDGCIGRRFFQSPAHINLLKEMKRRLTEVADFHHAASKALRVPAEGSEGLPESHSGTPGYLTSPELHKELVRLFNVYILWLEDENFQKGDTYIPSLPKHYDIHRLAKVMQNQQDLWMEYLNMERIYHEFQETVGLWTQAKLESHSTPCSLSVQLDFTDPLLAKERVLSNLRKHEAPQPPLALHPTKPPVPVISSAVLLSQKDATQLVCTDLNLLQQQARTAALRESQQVALDGELLDTMPKQYVNREEQTTLHLECRGSSGKKCQGAAVVTVQFEGMHKNEAISQQLHVLRKEVKQLQAEAAKPPSLNIVEAAVHAENLITALVNAYKLQPTPGIQKVGISLFFTIVDYVSDETQRHPPTRQFFTSCIEILGQVFISGIKSECRKVLETILKNSRLCSLLSPFFTPNAAPAEFIQLYEQVVKFLSEDNSDMIFMLLTKFDLKQWLSATKPPLSDRTRLLESIHLALTAWGLEPDEDILMPFNLFCKHWTYLLLYQFPDQYSDILRLLMQSSAEQLLSPECWKATLRALGCCAPSCQQGAASTEGAVLPSSSDALLSDKQVMETIQWLSDFFYKLRLSKMDFKSFGLFSKWSPYMADVKTFLGYLVKRLIDLEMTCLAQDPTASRKTVLKSLHSVIIQLFKPWILVLEDNESSQQRHYPWLESDTVVASSIVQLFTDCIDSLHESFKDKLLPGDAGALWLHLMHYCEACTAPKMPEFILYAFHSTYRKLPWKDLHPDQMLMEAFFKVERGSPKSCFLFLGSVLCEVNWVSVLSDAWNSSPHPETRSMIVCLLFMMILLAKEVQLVDQTDSPLLSLLGQTSSLSWHLVDIVSYQSVLSYFSSHYPPSIILAKESYAELIMKLLKVSAGLSIPTDSQKHLDAVPKCQAFTHQMVQFLSTLEQNGKITLAVLEQEMSKLLDDIIVFNPPDMDSQTRHMALSSLFMEVLMMMNNATIPTAEFLRGSIRTWIGQKMHGLVVLPLLTAACQSLASVRHMAETTEACITAYFKESPLNQNSGWGPILVSLQVPELTMEEFLQECLTLGSYLTLYVYLLQCLNSEQTLRNEMKVLLILSKWLEQVYPSSVEEEAKLFLWWHQVLQLSLIQTEQNDSVLTESVIRILLLVQSRQNLVAEERLSSGILGAIGFGRKSPLSNRFRVVARSMAAFLSVQVPMEDQIRLRPGSELHLTPKAQQALNALESMASSKQYVEYQDQILQATQFIRHPGHCLQDGKSFLALLVNCLYPEVHYLDHIR"}}, "biological_target": "GST-GABARAP (human) (UniProt O95166)", "assay": "pull-down; GST pull-down: purified GST-LC3A/B/C or GST-GABARAP/L1/L2 bait (200–240 µg) on glutathione resin, purified His-FLAG-hEPG5 or mutant (25–30 µg) as prey; 50 mM Tris pH 8.0, 150 mM NaCl, 5% glycerol, 0.01% Tween20, 0.5 mM DTT, 4 °C; anti-FLAG fluorescence western blot; both purified", "note": "These are yes or no findings as the source states them, for the method shown.", "data": [{"binder": "B1", "values": [{"measurement": "binding", "value": "no binding (tested: 25–30 µg hEPG5 on 200–240 µg bait)"}]}]}
